PubChem BioAssay AID1224826, NIAID – 2016

- Screen: 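Knock-downs that raise or lower Tnf reporter signal after endotoxin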 (primary screen)
- Cell system: RAW264.7 G9 macrophages from mouse bearing reporters for p65 (GFP) and the Tnf promoter (mCherry)
- Reagent: siRNA pool against mouse genes, 100 nM
- Time to read-out: 16 h of LPS stimulation, after 2 days of siRNA transfection
- Conditions: bacterial lipopolysaccharide (Salmonella minnesota R595), 10 ng/ml
- Measurement: 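Imaged Tnf reporter mCherry in nuclei, minus background, normalised per plate to the median and expressed as robust z-scores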
- Reading the numbers: Tnf reporter robust z-score: higher = stronger Tnf promoter reporter signal after LPS; Tnf reporter intensity: higher = stronger Tnf promoter reporter signal
- Call rule: 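Called active when robust z-score is at most -1.3, matching the median of the Tlr4 knock-down control, or over 3; control wells and wells with under 50 cells never active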
- Meaning of the calls: active = Tnf reporter clearly lowered or raised; inactive = no clear change in Tnf reporter
Shown is an unselected part of about 17,000 reagents tested. About 1,110 of all reagents (6.6%) count as active. 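Active means lowered or raised reporter signal; replicate intensities are raw and not normalised per plate.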 Unmarked entries are inactive. Reagents against one gene are numbered here.

| Gene | pool no. | Tnf reporter robust z-score | fewer than 50 cells in well | Tnf reporter intensity, replicate 1 | Tnf reporter intensity, replicate 2 |
| --- | --- | --- | --- | --- | --- |
| Scaf8 | 1 | 0.83 | enough cells in well | 179 | 149 |
| Scaf8 | 2 | -0.67 | enough cells in well | 137 | 114 |
| Lag3 | 1 | 1.26 | enough cells in well | 321 | 229 |
| Cyp4a12b | 1 | 0.16 | enough cells in well | 207 | 174 |
| Zfp11 | 1 | 1.25 | enough cells in well | 186 | 167 |
| Kpna3 | 1 | -0.89 | enough cells in well | 160 | 111 |
| Ccdc93 | 1 | – | fewer than 50 cells per well; well left out of calls | 229 | 72.8 |
| Pglyrp3 | 1 | 1.67 | enough cells in well | 218 | 219 |
| Usp31 | 1 | – | fewer than 50 cells per well; well left out of calls | 134 | 116 |
| Wwox | 1 | -0.74 | enough cells in well | 169 | 176 |
| Phpt1 | 1 | -0.27 | enough cells in well | 233 | 166 |
| Smarcal1 | 1 | -0.61 | enough cells in well | 205 | 185 |
| Vmn1r82 | 1 | -1.32 (active) | enough cells in well | 68 | 35.9 |
| Tmprss3 | 1 | 0.35 | enough cells in well | 243 | 161 |
| Synrg | 1 | – | fewer than 50 cells per well; well left out of calls | 110 | 99 |
| Ndufa6 | 1 | -0.33 | enough cells in well | 238 | 73.6 |
| Acrv1 | 1 | 0.04 | enough cells in well | 173 | 224 |
| Slc2a2 | 1 | -0.32 | enough cells in well | 184 | 135 |
| Gclc | 1 | 0.17 | enough cells in well | 327 | 198 |
| Cacng6 | 1 | -0.3 | enough cells in well | 132 | 181 |
| Foxa2 | 1 | -0.04 | enough cells in well | 265 | 221 |
| D930030D11Rik | 1 | -0.5 | enough cells in well | 105 | 176 |
| Cabp4 | 1 | -1.2 | enough cells in well | 106 | 93 |
| Prmt1 | 1 | -0.66 | enough cells in well | 177 | 153 |
| Nup62 | 1 | 0.4 | enough cells in well | 185 | 193 |
| Nudt13 | 1 | -0.42 | enough cells in well | 197 | 99.3 |
| Cabp7 | 1 | -0.78 | enough cells in well | 88.4 | 175 |
| Apol11b | 1 | 0.01 | enough cells in well | 163 | 153 |
| Tcf20 | 1 | -1.31 (active) | enough cells in well | 148 | 63.2 |
| Tafa5 | 1 | -0.54 | enough cells in well | 134 | 141 |
| Actb | 1 | 1.01 | enough cells in well | 222 | 232 |
| Gcsam | 1 | -0.4 | enough cells in well | 155 | 158 |
| Iqgap1 | 1 | -0.95 | enough cells in well | 202 | 74.2 |
| AI182371 | 1 | -0.16 | enough cells in well | 109 | 261 |
| Psg21 | 1 | -0.34 | enough cells in well | 109 | 121 |
| Pus10 | 1 | -1.03 | enough cells in well | 108 | 103 |
| Cbr2 | 1 | -0.13 | enough cells in well | 160 | 165 |
| Smtn | 1 | -0.53 | enough cells in well | 222 | 183 |
| Il17a | 1 | -1.17 | enough cells in well | 144 | 114 |
| Emilin1 | 1 | 0.16 | enough cells in well | 199 | 103 |

5 of these entries, set out differently.
Pus10
- Tnf reporter robust z-score: -1.03
- fewer than 50 cells in well: enough cells in well
- Tnf reporter intensity, replicate 1: 108
- Tnf reporter intensity, replicate 2: 103

Cbr2
- Tnf reporter robust z-score: -0.13
- fewer than 50 cells in well: enough cells in well
- Tnf reporter intensity, replicate 1: 160
- Tnf reporter intensity, replicate 2: 165

Smtn
- Tnf reporter robust z-score: -0.53
- fewer than 50 cells in well: enough cells in well
- Tnf reporter intensity, replicate 1: 222
- Tnf reporter intensity, replicate 2: 183

Il17a
- Tnf reporter robust z-score: -1.17
- fewer than 50 cells in well: enough cells in well
- Tnf reporter intensity, replicate 1: 144
- Tnf reporter intensity, replicate 2: 114

Emilin1
- Tnf reporter robust z-score: 0.16
- fewer than 50 cells in well: enough cells in well
- Tnf reporter intensity, replicate 1: 199
- Tnf reporter intensity, replicate 2: 103
